Results are given in words; binding and its absence hold for the method and conditions named. Binding seen in cells or lysates may run through a third protein. These calls come from enrichment with a bait or labelling near it, and not all partners need be listed. Tags and fused reporters may be left off the sequences shown.
Experiments:
[1] = target: T1, 2HA-tagged GON7 (stably overexpressed in human podocytes) (human) (UniProt Q9BXV9); assay: affinity purification with mass spectrometry; immunoprecipitation of 2HA-GON7 or V5-LAGE3 from human podocyte cell lines stably expressing them; control IP versus IP HA or IP V5, three biological replicates
T1 sequence: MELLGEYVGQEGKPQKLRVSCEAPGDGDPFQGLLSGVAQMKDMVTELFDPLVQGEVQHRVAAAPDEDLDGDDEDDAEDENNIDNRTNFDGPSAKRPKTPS

[2] = target: T2, V5-tagged LAGE3 (stably overexpressed in human podocytes) (human) (UniProt Q14657); assay: as above
T2 sequence: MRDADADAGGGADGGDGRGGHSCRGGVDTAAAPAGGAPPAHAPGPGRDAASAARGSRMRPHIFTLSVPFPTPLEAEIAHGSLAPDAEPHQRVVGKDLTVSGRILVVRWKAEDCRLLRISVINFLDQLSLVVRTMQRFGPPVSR

Molecule | binding [1] | binding [2]
TPRKB (endogenous, human podocytes) (from UniProt Q9Y3C4 1-175) | binds | binds
TP53RK (endogenous, human podocytes) (protein, UniProt Q96S44 1-253) MAAARATTPADGEEPAPEAEALAAARERSSRFLSGLELVKQGAEARVFRGRFQGRAAVIKHRFPKGYRHPALEARLGRRRTVQEARALLRCRRAGISAPVVFFVDYASNCLYMEEIEGSVTVRDYIQSTMETEKTPQGLSNLAKTIGQVLARMHDEDLIHGDLTTSNMLLKPPLEQLNIVLIDFGLSFISALPEDKGVDLYVLEKAFLSTHPNTETVFEAFLKSYSTSSKKARPVLKKLDEVRLRGRKRSMVG | binds | –

Source: paper PMC6722078, “Defects in t^6A tRNA modification due to GON7 and YRDC mutations lead to Galloway-Mowat syndrome” (Nature Communications, 2019)
